Laboratory results taken from patent US20070078092A1, “Cell permeable conjugates of peptides for inhibition of protein kinases” (priority 2003, published 2007).
Some entries share one result that the patent states for a list of compounds. For some assays here: At least one peptide structure holds a part that was inferred or is arguable (an end, a ring closure or a residue).

Tests used:
[1] = system: PBLs, normal peripheral blood lymphocytes; assay: Growth inhibition / cell death in normal blood cells (PBLs); assay type: cell-based; conditions: FIG. 7
[2] = system: LNCaP cells; assay: Growth inhibition assay in LNCaP cells; assay type: cell-based, human; conditions: prostate LNCaP line, FIG. 7
Source text: Several cancer cell lines were used to determine the activity of PKB inhibitor compounds in intact cells. The human prostate carcinoma cell lines, PC-3 and LNCaP. The human acute T cells leukemia cell line, Jurkat. Human breast carcinoma cell lines: MCF-7 and MDA468 and renal adenocarcinoma cell 786-O. LNCaP,MDA468, 786-O and Jurkat cell lines express high basal level of activated PKB. PC-3 expresses moderate level of activated PKB. MCF-7 expresses low but inducible level of activated PKB. Control cells are PBLs, normal peripheral blood lymphocytes which obtained from normal donors (blood bank) and MCF10F which is a non tumorogenic breast cell line. […]
Cells were fixed by 0.5% glutardialdehyde followed by staining with 1% methylene blue in borate buffer (Sigma) for one hour. […] Quantitation of color intensity was performed by measurement of the optical density at 600 nm by ELISA reader. […]
At the appropriate time in culture 1uci of 3H-thymidine (stock of 5 Ci/mmole, Amersham) was added to each well containing 100 μl of medium for 5 hours. […] The radioactivity was counted using microplate counter, Packard TopCount.
Fifty percent inhibitory concentration (IC50) values were calculated using nonlinear regression in one site competition model with GraphPad Prism version 3.03 Windows (GraphPad Software, San Diego, USA)

[3] = system: prostate cancer cell lines; assay: Cell death and apoptosis in prostate cancer cell lines; assay type: cell-based, human
Source text: Several cancer cell lines were used to determine the activity of PKB inhibitor compounds in intact cells. The human prostate carcinoma cell lines, PC-3 and LNCaP. The human acute T cells leukemia cell line, Jurkat. Human breast carcinoma cell lines: MCF-7 and MDA468 and renal adenocarcinoma cell 786-O. LNCaP,MDA468, 786-O and Jurkat cell lines express high basal level of activated PKB. PC-3 expresses moderate level of activated PKB. MCF-7 expresses low but inducible level of activated PKB. Control cells are PBLs, normal peripheral blood lymphocytes which obtained from normal donors (blood bank) and MCF10F which is a non tumorogenic breast cell line. The control cells are used to compare the effect of the protein kinase inhibitors on the tested cancer cells and the normal cells.
Peptide conjugates, which are active in enzyme inhibition assays were tested in cells for induction of apoptosis of cancer cell lines. Apoptosis was assayed at least by two methods in each cell line. Cells were seeded at the appropriate plates for each method, treated with or without the inhibitory compounds for different time points and analyzed by one of the below methods.
Table 9 represents the cell death induced by the protein kinase inhibitors in prostate cancer cell lines vs. normal cells. […]

[4] = system: PKB downstream substrates GSK3 and FKHR; assay: Inhibition of phosphorylation of PKB downstream substrates (Western blot); assay type: cell-based, human
Protocol: B3. Inhibition of Phosphorylation of PKB and Downstream Substrates:
Peptide conjugates identified as inhibitors of PKB were further tested in cells for their ability to inhibit the phosphorylation of several PBK downstream substrates. The substrate GSK3 is associated with cell metabolism and cell cycle. Forkhead (FKHR) is directly associated with apoptosis. Inhibitory activity in these assays indicates also that the positive compounds penetrate into the cells.
Cells (2×10^6) were seeded in 25 cm^2 flasks grown for 2 days at normal medium conditions. Inhibitory compounds were added for 24 hrs and analyzed for their effect on PKB phosphorylation at Ser473 residue and on the phosphorylation of specific substrates of PKB, GSK3 and FKHR. At the end of the treatment cells were lysed using lysis buffer (20 mM Tris-HCl pH 7.4, 150 mM NaCl, 0.5% Triton-x100, 25 mM NaF, 2 mM AEBSF, 1 mM sodium orthovanadate, 10 mM β-glycerophosphate, 1 μg/ml aprotonin and 5 μg/ml leupeptin). Equal amounts of cell protein were resolved by 10% SDS-PAGE and electroblotted to PVDF membranes. Western blot analysis was performed using antibodies against phospho-Akt1 (Ser473), phospho-GSK3α (Ser21) and phosphor-FKHR (Thr24), which were obtained from Cell Signaling Technology and against Akt1 (Upstate), GSK3α (Transduction Laboratories), and FKHR (Cell Signaling Technology).

Substance | concentration safe to normal cells [1] [µM] | concentration causing death in cancer cells [2] [µM] | concentration inducing cell death and apoptosis [3] [µM] | concentration showing inhibition of downstream substrates of PKB by western blot [4] [µM]
Cholesteryl-O—CO-Arg-Pro-Arg-Orn-Glu(Aminoethylsulfonamidoisoquinoline)-Ser-Phe-NH2 [PTR 6260] | > 50 | 7 to 11 |  | 
Cholesteryl-O—CO-(DLys)3-Arg-Pro-Arg-Nva-Tyr-Dap-Hol-NH2 [PTR 6320] |  |  | 1 to 2 | 3 to 5
Cholesteryl-O—CO-Arg-Pro-Arg-Nva-Tyr-Dap-Hol-NH2 [PTR 6164] |  | 7 to 11 |  | 
